Data: publication PMC3874760
These are yes or no findings as the source states them, for the method shown. Some binding calls cover weakened binding; strength is not graded here.

The chains behind the UniProt entries cited, without tags or fusion partners.
UniProt O14776: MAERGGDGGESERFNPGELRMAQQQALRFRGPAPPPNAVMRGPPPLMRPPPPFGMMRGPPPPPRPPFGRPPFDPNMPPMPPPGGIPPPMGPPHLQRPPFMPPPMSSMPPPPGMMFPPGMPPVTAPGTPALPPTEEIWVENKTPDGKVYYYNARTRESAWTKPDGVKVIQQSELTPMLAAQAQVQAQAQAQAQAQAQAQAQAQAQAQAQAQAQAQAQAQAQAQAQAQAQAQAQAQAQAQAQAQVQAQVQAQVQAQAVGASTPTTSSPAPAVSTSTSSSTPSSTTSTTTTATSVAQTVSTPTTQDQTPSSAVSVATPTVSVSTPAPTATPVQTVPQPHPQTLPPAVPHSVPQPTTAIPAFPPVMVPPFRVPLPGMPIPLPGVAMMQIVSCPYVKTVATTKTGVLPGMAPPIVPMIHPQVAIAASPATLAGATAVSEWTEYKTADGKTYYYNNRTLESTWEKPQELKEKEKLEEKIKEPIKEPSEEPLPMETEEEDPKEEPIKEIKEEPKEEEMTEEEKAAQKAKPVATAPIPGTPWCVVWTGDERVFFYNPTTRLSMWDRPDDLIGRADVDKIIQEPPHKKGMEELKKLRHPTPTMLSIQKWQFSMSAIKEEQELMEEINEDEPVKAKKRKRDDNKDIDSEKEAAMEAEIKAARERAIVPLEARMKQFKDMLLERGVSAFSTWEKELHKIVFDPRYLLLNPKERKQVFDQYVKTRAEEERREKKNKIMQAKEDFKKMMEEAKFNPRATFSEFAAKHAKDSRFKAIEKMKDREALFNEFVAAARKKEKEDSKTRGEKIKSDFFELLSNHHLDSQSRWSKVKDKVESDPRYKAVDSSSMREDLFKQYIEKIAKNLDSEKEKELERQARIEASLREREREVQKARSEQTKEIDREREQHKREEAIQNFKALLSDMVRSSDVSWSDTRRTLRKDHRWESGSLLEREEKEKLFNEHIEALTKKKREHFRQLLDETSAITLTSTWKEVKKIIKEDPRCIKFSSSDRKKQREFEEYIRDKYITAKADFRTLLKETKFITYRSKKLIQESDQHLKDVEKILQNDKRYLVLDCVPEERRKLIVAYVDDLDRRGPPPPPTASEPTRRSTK

Target: TCERG1, bait of the tandem affinity purification (TAP) (UniProt O14776)
Assay: tandem affinity purification (TAP); TCERG1 as bait; data not shown, no conditions told

binding: binds
B1: ELL (protein, UniProt P55199 1-621)
chain: MAALKEDRSYGLSCGRVSDGSKVSVFHVKLTDSALRAFESYRARQDSVSLRPSIRFQGSQGHISIPQPDCPAEARTFSFYLSNIGRDNPQGSFDCIQQYVSSHGEVHLDCLGSIQDKITVCATDDSYQKARQSMAQAEEETRSRSAIVIKAGGRYLGKKVQFRKPAPGATDAVPSRKRATPINLASAIRKSGASAVSGGSGVSQRPFRDRVLHLLALRPYRKAELLLRLQKDGLTQADKDALDGLLQQVANMSAKDGTCTLQDCMYKDVQKDWPGYSEGDQQLLKRVLVRKLCQPQSTGSLLGDPAASSPPGERGRSASPPQKRLQPPDFIDPLANKKPRISHFTQRAQPAVNGKLGVPNGREALLPTPGPPASTDTLSSSTHLPPRLEPPRAHDPLADVSNDLGHSGRDCEHGEAAAPAPTVRLGLPLLTDCAQPSRPHGSPSRSKPKKKSKKHKDKERAAEDKPRAQLPDCAPATHATPGAPADTPGLNGTCSVSSVPTSTSETPDYLLKYAAISSSEQRQSYKNDFNAEYSEYRDLHARIERITRRFTQLDAQLRQLSQGSEEYETTRGQILQEYRKIKKTNTNYSQEKHRCEYLHSKLAHIKRLIAEYDQRQLQAWP
